The other results are listed elsewhere or left out.
Assays:
Assay in all cases: log2 fold change, soluble protein after heating vs DMSO (PISA); higher = thermal stabilisation; K562 lysate, 10 uM; active = over 0.2 and 3.5 SD of the protein, either way, in both replicates (recomputed)
lapatinib = compound: CS(=O)(=O)CCNCc1ccc(-c2ccc3ncnc(Nc4ccc(OCc5cccc(F)c5)c(Cl)c4)c3c2)o1 [lapatinib]
Procedure, shortened: (§1)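 To prepare the extract, K562 pellets were dounce-homogenised in PBS pH 7.4 with 1 mM MgCl2, giving crude material at 1 mg/mL protein. This was treated with 10 μM compound for 30 min, then heated in aliquots for 3 min over 48°C-58°C before pooling and addition of NP-40 to 0.5% at 4°C. Centrifugation at 21,000xg for 90 min left soluble protein in the supernatant, which TMTpro 16plex LC-MS/MS quantified with equalised channel sums. Results are log-two fold changes in thermal stability compared with solvent controls, from duplicates.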

Sequences of proteins named here, by UniProt entry; tags and fusion partners are left off. A change or cut given only in a name is not applied to a line headed by its entry.
UniProt Q96QD8: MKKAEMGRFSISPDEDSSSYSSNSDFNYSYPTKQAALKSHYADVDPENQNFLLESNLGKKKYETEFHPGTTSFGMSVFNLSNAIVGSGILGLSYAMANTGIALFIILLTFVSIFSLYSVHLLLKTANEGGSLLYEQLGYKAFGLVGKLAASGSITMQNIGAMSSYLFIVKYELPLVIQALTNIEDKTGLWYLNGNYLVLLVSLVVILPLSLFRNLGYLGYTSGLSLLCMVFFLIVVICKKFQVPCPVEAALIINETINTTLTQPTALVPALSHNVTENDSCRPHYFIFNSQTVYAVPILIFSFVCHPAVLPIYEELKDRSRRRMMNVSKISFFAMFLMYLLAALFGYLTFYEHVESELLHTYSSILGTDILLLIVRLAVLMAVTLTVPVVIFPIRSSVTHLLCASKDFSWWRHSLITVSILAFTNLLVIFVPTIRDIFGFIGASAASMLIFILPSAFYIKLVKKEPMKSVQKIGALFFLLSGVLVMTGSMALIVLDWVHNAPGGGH
UniProt Q7Z2H8: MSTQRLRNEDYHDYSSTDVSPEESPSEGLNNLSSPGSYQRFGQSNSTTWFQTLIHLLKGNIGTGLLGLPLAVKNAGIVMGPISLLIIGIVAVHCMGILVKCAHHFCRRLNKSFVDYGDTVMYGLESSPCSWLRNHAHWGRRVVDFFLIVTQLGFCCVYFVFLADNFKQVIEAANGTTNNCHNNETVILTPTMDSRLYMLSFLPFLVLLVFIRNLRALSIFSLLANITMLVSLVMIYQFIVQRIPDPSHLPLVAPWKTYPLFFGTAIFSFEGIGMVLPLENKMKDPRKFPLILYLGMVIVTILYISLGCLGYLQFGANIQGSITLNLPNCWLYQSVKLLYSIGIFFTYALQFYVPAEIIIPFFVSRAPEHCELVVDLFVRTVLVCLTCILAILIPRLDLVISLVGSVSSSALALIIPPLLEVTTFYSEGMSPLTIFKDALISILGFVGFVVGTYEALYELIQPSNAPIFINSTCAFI
UniProt Q9NQQ7: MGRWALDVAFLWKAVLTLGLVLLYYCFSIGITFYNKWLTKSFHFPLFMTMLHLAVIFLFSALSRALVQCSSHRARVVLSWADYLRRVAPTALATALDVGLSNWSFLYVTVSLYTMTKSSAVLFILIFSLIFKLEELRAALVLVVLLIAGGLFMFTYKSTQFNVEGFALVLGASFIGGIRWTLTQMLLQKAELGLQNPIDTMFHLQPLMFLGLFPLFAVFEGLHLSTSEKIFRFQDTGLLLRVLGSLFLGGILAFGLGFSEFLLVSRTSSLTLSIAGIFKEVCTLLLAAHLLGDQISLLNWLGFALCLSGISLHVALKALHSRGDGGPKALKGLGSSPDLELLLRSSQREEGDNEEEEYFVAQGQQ
UniProt Q15796, whole entry, looked up: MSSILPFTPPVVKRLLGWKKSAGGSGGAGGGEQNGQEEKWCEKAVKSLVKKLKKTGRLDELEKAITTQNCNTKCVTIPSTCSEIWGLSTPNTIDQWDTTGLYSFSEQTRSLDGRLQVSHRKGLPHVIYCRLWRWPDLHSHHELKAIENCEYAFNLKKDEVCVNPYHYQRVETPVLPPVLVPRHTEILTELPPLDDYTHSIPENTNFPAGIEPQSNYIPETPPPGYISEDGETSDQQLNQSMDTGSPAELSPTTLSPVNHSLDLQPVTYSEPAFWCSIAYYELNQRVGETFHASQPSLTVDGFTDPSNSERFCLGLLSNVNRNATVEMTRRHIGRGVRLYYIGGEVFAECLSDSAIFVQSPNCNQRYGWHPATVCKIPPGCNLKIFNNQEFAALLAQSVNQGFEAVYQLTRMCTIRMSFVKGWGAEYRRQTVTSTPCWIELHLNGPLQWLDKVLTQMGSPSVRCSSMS
UniProt Q99808: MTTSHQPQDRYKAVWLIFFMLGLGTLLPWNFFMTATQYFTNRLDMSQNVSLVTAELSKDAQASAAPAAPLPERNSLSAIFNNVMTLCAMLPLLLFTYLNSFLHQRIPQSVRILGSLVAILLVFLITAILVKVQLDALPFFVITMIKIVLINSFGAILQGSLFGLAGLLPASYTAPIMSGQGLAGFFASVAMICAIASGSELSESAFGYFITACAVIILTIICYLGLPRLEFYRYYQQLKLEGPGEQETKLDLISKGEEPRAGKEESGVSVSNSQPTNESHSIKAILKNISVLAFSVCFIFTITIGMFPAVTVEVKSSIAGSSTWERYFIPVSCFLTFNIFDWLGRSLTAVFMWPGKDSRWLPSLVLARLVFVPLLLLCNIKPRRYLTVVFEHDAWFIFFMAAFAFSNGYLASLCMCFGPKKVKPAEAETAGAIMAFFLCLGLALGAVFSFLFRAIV
UniProt Q14BN4: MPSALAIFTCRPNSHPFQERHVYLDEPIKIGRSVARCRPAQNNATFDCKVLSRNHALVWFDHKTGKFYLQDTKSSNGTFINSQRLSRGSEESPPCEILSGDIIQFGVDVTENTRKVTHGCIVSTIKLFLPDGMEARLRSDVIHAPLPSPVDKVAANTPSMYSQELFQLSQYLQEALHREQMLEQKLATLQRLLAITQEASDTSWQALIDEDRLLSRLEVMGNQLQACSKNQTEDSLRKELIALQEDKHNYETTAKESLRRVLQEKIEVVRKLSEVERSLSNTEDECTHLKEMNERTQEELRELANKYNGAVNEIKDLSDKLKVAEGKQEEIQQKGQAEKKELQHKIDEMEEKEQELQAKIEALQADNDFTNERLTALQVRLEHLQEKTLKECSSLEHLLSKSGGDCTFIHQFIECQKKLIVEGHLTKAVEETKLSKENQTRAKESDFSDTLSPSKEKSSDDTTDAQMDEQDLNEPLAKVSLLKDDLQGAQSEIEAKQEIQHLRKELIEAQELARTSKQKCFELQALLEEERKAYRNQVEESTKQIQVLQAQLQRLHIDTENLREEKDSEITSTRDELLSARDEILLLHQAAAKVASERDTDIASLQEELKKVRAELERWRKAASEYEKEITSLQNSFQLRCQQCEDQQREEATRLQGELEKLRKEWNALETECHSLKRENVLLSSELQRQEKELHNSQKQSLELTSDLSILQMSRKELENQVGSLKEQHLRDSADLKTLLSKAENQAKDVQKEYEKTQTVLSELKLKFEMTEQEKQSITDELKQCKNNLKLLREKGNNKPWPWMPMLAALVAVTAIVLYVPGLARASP
UniProt Q96CW6: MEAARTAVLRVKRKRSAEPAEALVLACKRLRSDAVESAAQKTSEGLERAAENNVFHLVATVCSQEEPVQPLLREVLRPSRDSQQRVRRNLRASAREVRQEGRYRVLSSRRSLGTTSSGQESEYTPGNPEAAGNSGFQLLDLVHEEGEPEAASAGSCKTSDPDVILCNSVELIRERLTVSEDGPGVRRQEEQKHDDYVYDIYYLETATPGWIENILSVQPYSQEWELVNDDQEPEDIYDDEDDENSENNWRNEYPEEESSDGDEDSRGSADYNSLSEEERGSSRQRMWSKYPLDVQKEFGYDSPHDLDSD

pictilisib = compound: CS(=O)(=O)N1CCN(Cc2cc3nc(-c4cccc5[nH]ncc45)nc(N4CCOCC4)c3s2)CC1 [pictilisib]
Procedure, shortened: as §1

crizotinib = compound: C[C@@H](Oc1cc(-c2cnn(C3CCNCC3)c2)cnc1N)c1c(Cl)ccc(F)c1Cl [crizotinib]
Procedure, shortened: as §1

[1] = compound: C[C@H](C1=CC=C(C=C1)C(=O)NC2=C3C=CNC3=NC=C2)N
Procedure, shortened: as §1

duvelisib = compound: C[C@H](Nc1ncnc2nc[nH]c12)c1cc2cccc(Cl)c2c(=O)n1-c1ccccc1 [duvelisib]
Procedure, shortened: as §1

gandotinib = compound: Cc1cc(Nc2cc(CN3CCOCC3)c3nc(C)c(Cc4ccc(Cl)cc4F)n3n2)n[nH]1 [gandotinib]
Procedure, shortened: as §1

tozasertib = compound: Cc1cc(Nc2cc(N3CCN(C)CC3)nc(Sc3ccc(NC(=O)C4CC4)cc3)n2)n[nH]1 [tozasertib]
Procedure, shortened: as §1

doramapimod = compound: Cc1ccc(-n2nc(C(C)(C)C)cc2NC(=O)Nc2ccc(OCCN3CCOCC3)c3ccccc23)cc1 [doramapimod]
Procedure, shortened: as §1

bafetinib = compound: Cc1ccc(NC(=O)c2ccc(CN3CC[C@H](N(C)C)C3)c(C(F)(F)F)c2)cc1Nc1nccc(-c2cncnc2)n1 [bafetinib]
Procedure, shortened: as §1

[2] = compound: Cc1cccc(CC(=O)N2CCc3c2ccc(-c2cn(C)c4ncnc(N)c24)c3F)n1
Procedure, shortened: as §1

nilotinib = compound: Cc1cn(-c2cc(NC(=O)c3ccc(C)c(Nc4nccc(-c5cccnc5)n4)c3)cc(C(F)(F)F)c2)cn1 [nilotinib]
Procedure, shortened: as §1

[3] = compound: Cc1nc(Nc2n[nH]c3c2CN(C(=O)N[C@H](CN(C)C)c2ccccc2)C3(C)C)c2sccc2n1
Procedure, shortened: as §1

dasatinib = compound: Cc1nc(Nc2ncc(C(=O)Nc3c(C)cccc3Cl)s2)cc(N2CCN(CCO)CC2)n1 [dasatinib]
Procedure, shortened: as §1

[4] = compound: Cc1ncc(-c2ccnc(Nc3ccc(S(C)(=O)=O)cc3)n2)n1C(C)C
Procedure, shortened: as §1

[5] = compound: Cn1cc(-c2ccc3c(c2)CCN3C(=O)Cc2cccc(C(F)(F)F)c2)c2c(N)ncnc21
Procedure, shortened: as §1

quisinostat = compound: Cn1cc(CNCC2CCN(c3ncc(C(=O)NO)cn3)CC2)c2ccccc21 [quisinostat]
Procedure, shortened: as §1

tipifarnib = compound: Cn1cncc1[C@@](N)(c1ccc(Cl)cc1)c1ccc2c(c1)c(-c1cccc(Cl)c1)cc(=O)n2C [tipifarnib]
Procedure, shortened: as §1

[6] = compound: NC(=O)Nc1cc(-c2cccc(F)c2)sc1C(=O)N[C@H]1CCCNC1
Procedure, shortened: as §1

[7] = compound: NC(=O)c1cnc(N[C@@H]2CCCC[C@@H]2N)nc1Nc1cccc(-n2nccn2)c1
Procedure, shortened: as §1

[8] = compound: NC1(c2ccc(-c3nc4ccn5c(=O)[nH]nc5c4cc3-c3ccccc3)cc2)CCC1
Procedure, shortened: as §1

Measured: log2 fold change

SLC38A2 (UniProt Q96QD8)
inactive: lapatinib -0.053 | pictilisib 0 | crizotinib 0.036 | [1] -0.106 | duvelisib 0.035 | gandotinib 0.123 | tozasertib 0.035 | doramapimod 0.025 | bafetinib -0.002 | [2] 0.109 | nilotinib -0.002 | [3] 0.018 | dasatinib 0.015 | [4] -0.005 | [5] -0.051 | quisinostat -0.051 | tipifarnib -0.058 | [6] 0.045 | [7] -0.038 | [8] 0.01

SLC36A1 (UniProt Q7Z2H8)
inactive: lapatinib 0.02 | pictilisib -0.049 | crizotinib -0.067 | [1] -0.046 | duvelisib 0.055 | gandotinib -0.023 | tozasertib -0.092 | doramapimod 0.088 | bafetinib -0.019 | [2] 0.144 | nilotinib 0.082 | [3] -0.026 | dasatinib 0.079 | [4] -0.043 | [5] -0.063 | quisinostat -0.074 | tipifarnib 0.037 | [6] 0.021 | [7] 0.032 | [8] 0.014

SLC35C2 isoform 3 (UniProt Q9NQQ7)
inactive: lapatinib -0.095 | pictilisib -0.001 | crizotinib 0.035 | [1] -0.163 | duvelisib -0.056 | gandotinib -0.095 | tozasertib 0.141 | doramapimod -0.09 | bafetinib -0.016 | [2] -0.134 | nilotinib -0.09 | [3] -0.054 | dasatinib 0.066 | [4] -0.018 | [5] 0.001 | quisinostat 0.022 | tipifarnib 0.152 | [6] -0.021 | [7] -0.046 | [8] 0.05

SMAD2 (UniProt Q15796)
inactive: lapatinib -0.006 | pictilisib -0.042 | crizotinib -0.055 | [1] -0.073 | duvelisib -0.066 | gandotinib -0.006 | tozasertib -0.027 | doramapimod -0.025 | bafetinib -0.005 | [2] 0.06 | nilotinib 0.025 | [3] 0.116 | dasatinib 0.006 | [4] -0.059 | [5] 0.011 | quisinostat -0.012 | tipifarnib 0.055 | [6] 0.038 | [7] -0.015 | [8] 0.042

SLC29A1 isoform 2 (UniProt Q99808)
inactive: lapatinib 0.02 | pictilisib 0.038 | crizotinib -0.042 | [1] -0.216 | duvelisib 0.037 | gandotinib 0.082 | tozasertib -0.068 | doramapimod 0.027 | bafetinib 0.032 | [2] 0.023 | nilotinib 0.001 | [3] 0.091 | dasatinib 0.016 | [4] 0.055 | [5] -0.025 | quisinostat -0.136 | tipifarnib -0.024 | [6] 0.02 | [7] -0.026 | [8] 0.035

SLMAP isoform 3 (UniProt Q14BN4)
inactive: lapatinib -0.009 | pictilisib 0.009 | crizotinib -0.008 | [1] -0.088 | duvelisib 0.032 | gandotinib -0.043 | tozasertib 0.073 | doramapimod 0.027 | bafetinib -0.073 | [2] 0.095 | nilotinib -0.025 | [3] -0.053 | dasatinib -0.023 | [4] -0.014 | [5] 0.056 | quisinostat -0.031 | tipifarnib 0.036 | [6] 0.027 | [7] 0.02 | [8] -0.003

SLC7A6OS (UniProt Q96CW6)
inactive: lapatinib 0.013 | pictilisib 0.002 | crizotinib 0.014 | [1] -0.031 | duvelisib -0.027 | gandotinib 0.099 | tozasertib 0.028 | doramapimod -0.014 | bafetinib -0.035 | [2] -0.023 | nilotinib 0.021 | [3] 0.088 | dasatinib 0.002 | [4] 0.127 | [5] -0.013 | quisinostat 0.013 | tipifarnib 0.026 | [6] -0.031 | [7] -0.015 | [8] -0.112

Reference: the supplement of paper PMC10849652
